From PubChem BioAssay AID2517 (National Center for Advancing Translational Sciences (NCATS), 2010)
In all, about 350,000 compounds went through this assay and about 1,200 (0.34%) were called active. This list was built around the results that the source calls inconclusive (neither active nor inactive); the mix of calls is not that of the screen. Calls follow the shape of the dose curve; as a rule, active = well fitted inhibition curve with a large enough effect; inconclusive = small, poorly fitted or top-dose-only effect; inactive = no such curve, though single readings can be large or run the other way. Potencies of inconclusive entries are doubtful fits and often do not repeat. Positions of bridges follow the written chain, without caps; N, C: chain ends. Non-standard residues stand in square brackets, D forms with d. Residues, ends and D or L forms follow the SMILES beside them. *: point of attachment. X1 = CC[C@H](C)CCCCC(=O)*; Dab = NCC[C@H](N)C(=O)O
Also: nearly all actives have a fitted effect of over 55% in size.
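For activity change, negative = inhibition in this document: plate controls were vehicle for no effect and reference inhibitor for full effect.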
Potency is read from the fitted curve at half-maximal effect.

Amino acid sequences for entries named in this document (tags omitted).
UniProt P27695, whole entry, looked up: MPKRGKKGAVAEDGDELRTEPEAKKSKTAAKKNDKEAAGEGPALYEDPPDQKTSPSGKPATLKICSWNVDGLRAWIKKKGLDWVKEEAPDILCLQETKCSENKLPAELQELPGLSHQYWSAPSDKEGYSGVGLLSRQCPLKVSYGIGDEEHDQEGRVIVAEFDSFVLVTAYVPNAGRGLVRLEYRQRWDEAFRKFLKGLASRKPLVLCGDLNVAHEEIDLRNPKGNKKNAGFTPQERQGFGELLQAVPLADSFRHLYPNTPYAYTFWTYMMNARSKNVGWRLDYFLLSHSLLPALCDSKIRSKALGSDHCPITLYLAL

These compounds were tested against DNA repair nuclease/redox regulator APEX1 (Homo sapiens) (UniProt P27695) (assay: qHTS Assay for Inhibitors of the Human Apurinic/apyrimidinic Endonuclease 1 (APE1)). Conditions: recombinant APE1, TAMRA/BHQ-2 abasic DNA cleavage fluorescence; activity change, negative = inhibition: at 65.8 µM (top of the series).
Summary of the method: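 APE1 at 0.75 nM final was preincubated with compound 15 min at room temperature, then 50 nM double-stranded THF abasic-site substrate (5'-TAMRA/3'-BHQ-2) was added. Fluorescence (ex 525/em 598 nm) was read kinetically; third-minus-first read gave activity.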
In the case of `CCCn1c(=O)c(C(=O)NCc2ccco2)c(O)c2ccccc21`, the Potency is reported as inconclusive: 7.08 µM [inhibitor, single point]. For `Cc1cc(C)n2nc(SCc3cc(=O)oc4cc(O)ccc34)nc2n1`, the Potency was inconclusive: 28.2 µM [inhibitor, single point]. `CC(=O)OC[C@@H]1O[C@H](CCO/N=C\[C@@H](C)[C@H](OCc2ccccc2)C(C)C)C=C[C@@H]1OC(C)=O` was tested, and the Potency was inconclusive: 2.82 µM [inhibitor, partial curve, poor fit]. With `S=C(S)O[C@@H]1C[C@@H]2C[C@H]1[C@@H]1CCC[C@H]21` the Potency was inconclusive: 44.7 µM [inhibitor, single point]. With `N#Cc1ccc(-c2nc3cc(Cl)ccc3c(=O)n2O)cc1` the “activity change, negative = inhibition” value was inactive: -4.29%. With `COc1ccc(-c2cc(=O)c3c(O)cc(O[C@@H]4O[C@H](CO[C@@H]5O[C@@H](C)[C@H](O)[C@@H](O)[C@H]5O)[C@@H](O)[C@H](O)[C@H]4O)cc3o2)cc1O` the Potency was inconclusive: 35.5 µM [inhibitor, partial curve, poor fit]. For `CCOc1ccc(/C=C2\SC(=S)N(CCC(=O)Nc3cccc(C(=O)O)c3)C2=O)cc1`, the Potency was inconclusive: 33.6 µM [inhibitor, single point]. In the case of `O=C1NC(c2ccccc2Br)=N/C1=C\c1ccco1`, the “activity change, negative = inhibition” value is reported as inactive: -3.45%. In the case of `O=C(C[C@H]1C/C=C\C[C@@H](Cc2ccc(F)cc2)C(=O)OC[C@H]2CCCN2C1=O)N[C@H](CO)Cc1ccccc1`, the Potency is reported as inconclusive: 23.8 µM [inhibitor, single point]. With `OCc1cccc(Cl)c1Cl` the “activity change, negative = inhibition” value was inactive: 11.2%. In the case of `COc1ccc(O)c(C(=O)C2c3ccccc3C(=O)N2c2ccc(C)cc2)c1` (configuration not stated), the Potency is reported as inconclusive: 3.98 µM [inhibitor, single point]. For `CCCCN(CCCC)S(=O)(=O)c1ccc(NS(=O)(=O)c2ccc(NC(C)=O)cc2)cc1`, the Potency was inconclusive: 2.24 µM [inhibitor, full curve]. In the case of `O=C(CCCOc1ccccc1)Nc1ccccc1C(F)(F)F`, the “activity change, negative = inhibition” value is reported as inactive: 0.619%. For `COc1ccc2sc3ccccc3c(=O)c2c1`, the Potency was inconclusive: 15.8 µM [inhibitor, partial curve, poor fit]. For `CCc1cc2c3c(c1)C(C)CC(C)(C)N3C(=O)/C2=C1\SC(=O)NC1=O` (configuration not stated), the Potency was inconclusive: 8.91 µM [inhibitor, single point]. For `NC(=O)CSC1=Nc2ccccc2C2=NC(CC(=O)NCc3cccs3)C(=O)N12` (configuration not stated), the Potency was inconclusive: 0.1 µM [inhibitor, full curve, poor fit]. With `O=C(CSc1ccccc1F)NC(=O)NCc1ccco1` the Potency was inconclusive: 25.1 µM [inhibitor, single point]. In the case of `O=C(O)CSc1nc(-c2ccc(Cl)cc2)nc2c1oc1ccccc12`, the “activity change, negative = inhibition” value is reported as inactive: 1.39%. In the case of `O=C(NNc1cccc(Cl)n1)Nc1cccc(C(F)(F)F)c1`, the Potency is reported as inconclusive: 28.2 µM [inhibitor, single point]. For `Cc1cc(C(=O)NNS(=O)(=O)c2ccc(C(C)(C)C)cc2)nn1C(C)(C)C`, the Potency was inconclusive: 5.62 µM [inhibitor, full curve, poor fit]. For `COc1ccc(NC(=O)Nn2cnnc2)cc1OC`, the “activity change, negative = inhibition” value was inactive: 3.51%. With `O=C1Nc2ccccc2C(O)(C(=O)NCc2ccco2)N1c1ccc(Cl)cc1` (configuration not stated) the Potency was inconclusive: 8.91 µM [inhibitor, single point]. With `O=C(Nc1ccon1)c1ccc2c(c1)OCO2` the “activity change, negative = inhibition” value was inactive: 9.36%. `Cc1ccc(N2C(=O)c3cccc4c(N)ccc(c34)C2=O)c2cccnc12` was tested, and the Potency was inconclusive: 39.8 µM [inhibitor, single point]. In the case of `CS(=O)(=O)CCNCc1nc(-c2ccc3ncnc(Nc4ccc(OCc5cccc(F)c5)c(Cl)c4)c3c2)cs1`, the Potency is reported as inconclusive: 7.94 µM [inhibitor, single point]. With `O=S1(=O)C2CC3C=CC2(CN1Cc1cccc(F)c1)O3` (configuration not stated) the “activity change, negative = inhibition” value was inactive: -1.17%. `CCn1c(SCC(N)=O)nnc1-c1ccc2c(c1)OCO2` was tested, and the Potency was inconclusive: 3.55 µM [inhibitor, single point]. With `Cc1ccccc1C(=O)Nc1c(C)[nH]c(=O)[nH]c1=O` the “activity change, negative = inhibition” value was inactive: 4.34%. `C/C(N)=C(/C#N)C(=O)CSc1nn(-c2ccc(Cl)cc2)c(=S)s1` was tested, and the Potency was inconclusive: 39.8 µM [inhibitor, single point]. `OCC1(O)OC[C@@H](O)[C@H]1O` (some centres not stated) was tested, and the Potency was inconclusive: 3.55 µM [inhibitor, single point]. With `COC(=O)c1ccc2nc(C)cc(Nc3ccc(N(C)C)cc3)c2c1` the Potency was inconclusive: 3.16 µM [inhibitor, single point]. With `CCOC(=O)/C(C#N)=N/Nc1ccc(S(=O)(=O)N2CCc3ccccc32)cc1` the Potency was inconclusive: 4.47 µM [inhibitor, single point]. In the case of `C#CCOCCOCCOCCNc1nc(N2CCN(C(=O)CCCCCCCCCCNC(=O)[C@H]([C@@H](C)CC)n3cc(CCCCN=C(N)N)nn3)CC2)nc(N2CCN(C(=O)CCCCCCCCCCNC(=O)[C@H](CCCCN)n3cc(C)nn3)CC2)n1`, the Potency is reported as inconclusive: 37.7 µM [inhibitor, single point]. With `Cc1ccccc1CN(C)CC(=O)Nc1c(C)cccc1C(C)C` the Potency was inconclusive: 2.82 µM [inhibitor, partial curve]. With `O=C(O)c1cccc(S(=O)(=O)Nc2ccc([N+](=O)[O-])cc2O)c1` the “activity change, negative = inhibition” value was inactive: -2.7%. In the case of `CC(C)CC(C(=O)OCC(=O)c1c(N)n(C)c(=O)n(C)c1=O)N1C(=O)C2CC=CCC2C1=O` (configuration not stated), the Potency is reported as inconclusive: 12.6 µM [inhibitor, partial curve, poor fit]. For `O=C(C[n+]1cccc2ccccc21)c1ccccc1`, the Potency was inconclusive: 10 µM [inhibitor, partial curve, poor fit]. `COc1cc(OC)c(OC)cc1/C=C1\Oc2cc(OS(C)(=O)=O)ccc2C1=O` was tested, and the Potency was inconclusive: 8.91 µM [inhibitor, partial curve, poor fit]. For `O=C1NC[C@@H](Cc2ccc(O)cc2)N(CCc2cccc3ccccc23)C1=O`, the Potency was inconclusive: 28.2 µM [inhibitor, partial curve]. `c1ccc(CNc2ncnc3ccccc23)cc1` was tested, and the Potency was “inactive”. In the case of `CC[C@H](C)CCCCC(=O)N[C@@H](CCN)C(=O)N[C@H](C(=O)N[C@@H](CCN)C(=O)N[C@H]1CCNC(=O)[C@H]([C@@H](C)O)NC(=O)[C@H](CCN)NC(=O)[C@H](CCN)NC(=O)[C@H](CC(C)C)NC(=O)[C@@H](CC(C)C)NC(=O)[C@H](CCN)NC1=O)[C@@H](C)O` (X1-[Dab]T[Dab][Dab][Dab][dL]L[Dab][Dab]T; lactam 4-C), the Potency is reported as inconclusive: 39.8 µM [inhibitor, single point]. With `COc1ccc(NC(=O)c2ccc(-c3ccccc3Cl)o2)cc1` the Potency was inconclusive: 3.16 µM [inhibitor, full curve]. For `c1ccc(N2CCN(c3nc(-c4cccs4)nc4ccccc34)CC2)cc1`, the Potency was inconclusive: 0.0398 µM [inhibitor, full curve, poor fit]. With `COc1ccc(NC(=O)C2CCC(C(C)(C)C)CC2)cc1S(=O)(=O)N1CCOCC1` (configuration not stated) the Potency was inconclusive: 29.9 µM [inhibitor, single point]. With `Cc1cccc(Oc2cc([N+](=O)[O-])cc3c2C(=O)Nc2ccccc2O3)c1` the Potency was inconclusive: 39.8 µM [inhibitor, single point]. With `CCOC(=O)c1[nH]c(C)c(C(=O)N2CCN(c3ccccc3)CC2)c1C` the Potency was inconclusive: 0.0891 µM [inhibitor, full curve, poor fit]. `Cc1ccc(C(=O)N/N=C/c2ccc([N+](=O)[O-])s2)cc1` was tested, and the Potency was inconclusive: 35.5 µM [inhibitor, single point]. In the case of `O=C1CCCc2c1cc(-c1ccccc1)n2-c1ccc(O)cc1`, the “activity change, negative = inhibition” value is reported as inactive: -4.99%. With `CCC(c1nnnn1Cc1ccco1)N(Cc1cc2cc(C)cc(C)c2[nH]c1=O)CC1CCCO1` (configuration not stated) the “activity change, negative = inhibition” value was inactive: -7.81%. `Cn1nc(-c2ccccc2)cc1NC(=O)Nc1ccccc1F` was tested, and the Potency was inconclusive: 0.0141 µM [inhibitor, full curve, poor fit]. For `CS(=O)(=O)NN1C(=O)c2ccccc2NC1c1cccs1` (configuration not stated), the Potency was inconclusive: 39.8 µM [inhibitor, single point]. With `CC(C)COC(=O)C1C2C=CC3(CN(C(C)c4ccc(Br)cc4)C(=O)C13)O2` (configuration not stated) the Potency was inconclusive: 35.5 µM [inhibitor, single point]. For `CCOC(=O)C1=C(O)/C(=C/c2ccc(OCC(=O)O)c(OCC)c2)SC1=Nc1ccc(C)cc1`, the Potency was inconclusive: 31.6 µM [inhibitor, partial curve, poor fit]. For `O=C(COc1ccc(/C=C\[N+](=O)[O-])cc1)N1CCOCC1`, the Potency was inconclusive: 8.91 µM [inhibitor, single point]. `CCOc1cc(CNS(=O)(=O)c2ccc3c(c2)CC(=O)N3C)cc(OCC)c1OCC` was tested, and the “activity change, negative = inhibition” value was inactive: 27.8%. With `COc1ccc(/C=N/NC(=O)c2ccccc2OC)cc1COc1ccc(C)cc1` the “activity change, negative = inhibition” value was inactive: 6.42%. In the case of `COc1cccc(NC(=S)NCc2ccco2)c1`, the Potency is reported as inconclusive: 8.91 µM [inhibitor, single point]. For `N#Cc1cccc(C(c2nnnn2C2CCCC2)N2CCCCCC2)c1` (configuration not stated), the Potency was inconclusive: 2.51 µM [inhibitor, partial curve, poor fit]. With `COc1cc(NC(=S)NN2CCN(C)CC2)cc(OC)c1OC` the Potency was inconclusive: 11.2 µM [inhibitor, partial curve, poor fit]. With `CC1CCCCC1NC(=S)NC(=O)c1ccccc1Cl` (configuration not stated) the “activity change, negative = inhibition” value was inactive: -14.3%. In the case of `NC1=NC[C@@H](Cc2ccc(O)cc2)N1CC1CCCCC1`, the Potency is reported as inconclusive: 44.7 µM [inhibitor, single point]. For `Cc1ccn2cc(-c3cccc(NC(=O)c4ccccc4)c3)nc2c1`, the Potency was inconclusive: 44.7 µM [inhibitor, single point].
